These are yes or no findings as the source states them, for the method shown. Some results given as binding are weak or reduced against the parent protein; the word gives no strength.
Target: human full-length scavenger receptor class B type 1 (SR-B1), glycosylated (human) (UniProt Q8WTV0)
Experiment: native gel or EMSA; nondenaturing perfluorooctanoic acid (PFO)-PAGE on 8% polyacrylamide gels of sonicated lysates of infected Sf9 cells (72 h), immunoblot against SR-B1 or CD36

binding: binds
B1: human full-length scavenger receptor class B type 1 (SR-B1), glycosylated (receptor, UniProt Q8WTV0-2 1-509)
chain: MGCSAKARWAAGALGVAGLLCAVLGAVMIVMVPSLIKQQVLKNVRIDPSSLSFNMWKEIPIPFYLSVYFFDVMNPSEILKGEKPQVRERGPYVYREFRHKSNITFNNNDTVSFLEYRTFQFQPSKSHGSESDYIVMPNILVLGAAVMMENKPMTLKLIMTLAFTTLGERAFMNRTVGEIMWGYKDPLVNLINKYFPGMFPFKDKFGLFAELNNSDSGLFTVFTGVQNISRIHLVDKWNGLSKVDFWHSDQCNMINGTSGQMWPPFMTPESSLEFYSPEACRSMKLMYKESGVFEGIPTYRFVAPKTLFANGSIYPPNEGFCPCLESGIQNVSTCRFSAPLFLSHPHFLNADPVLAEAVTGLHPNQEAHSLFLDIHPVTGIPMNCSVKLQLSLYMKSVAGIGQTGKIEPVVLPLLWFAESGAMEGETLHTFYTQLVLMPKVMHYAQYVLLALGCVLLLVPVICQIRSQEKCYLFWSSSKKGSKDKEAIQAYSESLMTSAPKGSVLQEAKL
modifications: glycosylated (Sf9); labeled with Cy5 via lysine residues in the MST

Reference: article PMC10509710
